“And” between values parts separate entries of the source, which are not always exact repeats. Identical values can stand only once. This is one part of the list.

Test systems include MT1M (human); MTAP (human); MTCP1 (human); MTHFR (human); MTMR1 (human); MTMR14 (human); MTMR9 (human); MTTP (human); MTUS1 (human); MUCL1 (human); MX1 (human); MXD1 (human); MYCBP (human); MYL1 (human); MYLC2PL (human); MYO1D (human); Magmas (human); Malcavernin (human); Mammaglobin-A (human).
Common to all, as to experiment: protein microarray (ProtoArray v5.0), streptavidin-Alexa Fluor 647
What all share (conditions): 3'-biotin; 20 mM Tris (pH 7.5), 5 mM MgCl2, 100 mM KCl, 0.1% Tween-20, A/T-rich and random oligonucleotide blockers; temperature not stated; high values mean tight binding

Assay [1] deals with Malate dehydrogenase, cytoplasmic (human).

Turning to “GGGAGGCTGAGGCAGG [G4-1 biotinylated (PQS2)]”, the binding signal with MT1M (human) was -0.314 z-score; in the assay on MTAP (human), -0.348 z-score and -0.338 z-score; in the assay with MTCP1 (human), -0.281 z-score; in the assay on MTHFR (human), -0.347 z-score and -0.333 z-score; in the assay with MTMR1 (human) it was -0.334 z-score; with MTMR14 (human), -0.29 z-score. Further, the binding signal in the assay on MTMR9 (human) was -0.274 z-score; in the assay with MTTP (human), -0.314 z-score; with MTUS1 (human), -0.314 z-score; in the assay on MUCL1 (human) it was -0.316 z-score; in the assay on MX1 (human) it was -0.342 z-score; in the assay on MXD1 (human), -0.304 z-score. Moreover, the binding signal in the assay with MYCBP (human) was -0.351 z-score; in the assay with MYL1 (human), -0.311 z-score; in the assay on MYLC2PL (human), -0.309 z-score; with MYO1D (human), -0.246 z-score; with Magmas (human) it was -0.303 z-score; in [1], -0.317 z-score. The binding signal in the assay with Malcavernin (human) is -0.35 z-score; with Mammaglobin-A (human) it was -0.357 z-score.

The record behind these values is publication PMC5996148.
